Measurements reported in PubChem BioAssay AID504764 (Drosophila RNAi Screening Center, 2011)
Test: 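Genome-wide screen for regulators of Notch-driven gene expression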 (primary screen). System: Drosophila Kc167 cells. Knock-down reagent: long dsRNA against Drosophila genes. Timing: about 5 days (4 days dsRNA, then 24 h after transfection). Conditions: transfection of constitutively active membrane-tethered Notch lacking the extracellular domain, read 24 h later. Detection: 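Light from a Notch-responsive E(spl)m3 luciferase reporter under active Notch, with control-promoter and no-Notch reporter wells to normalise; raw counts from paired wells a and b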. Scale: induced reporter light, run 1, well a and induced reporter light, run 1, well b: higher = more light from the Notch target reporter with active Notch; control promoter light, run 1, well a and control promoter light, run 1, well b: higher = more light from the viral control promoter (cell number, transfection, viability); uninduced reporter light, run 1, well a: higher = more light from the Notch target reporter without active Notch. Active means: 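Wells with low control signal or poorly matching duplicates excluded; duplicates averaged; per source plate, z beyond ±2 for induced/control log2 ratio or beyond ±1.8 for induced/uninduced marks a hit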. Calls: active = modifier hit (raised or lowered Notch signal); inactive = not a hit.
In all, the deposit lists about 22,000 reagents; shown is a random part of those that have a named target and a result. Of all reagents, 403 (1.9%) were called active. 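Unnormalised raw counts per well; ratio z-scores behind the hit calls and whether each hit raises or lowers signal are not deposited.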 Reagent sequences are not shown. Not stated in the record: the amount of reagent.

| target | PubChem SID | induced reporter light, run 1, well a | induced reporter light, run 1, well b | control promoter light, run 1, well a | control promoter light, run 1, well b | uninduced reporter light, run 1, well a | Outcome |
| --- | --- | --- | --- | --- | --- | --- | --- |
| Cftr | SID104195664 | 1.57e5 | 1.72e5 | 2.21e5 | 2.43e5 | 14765 | inactive |
| Hs3st-A | SID104186299 | 11340 | 15225 | 23625 | 27580 | 4095 | inactive |
| Hs3st-A | SID104186300 | 96845 | 79155 | 1.06e5 | 96750 | 7465 | inactive |
| Hs3st-A | SID104186301 | 74525 | 81770 | 82125 | 1.05e5 | 5815 | inactive |
| CG17124 | SID104182372 | 1.25e5 | 1.34e5 | 69185 | 94650 | 14920 | inactive |
| CG9338 | SID104183005 | 2.29e5 | 2.66e5 | 2.06e5 | 2.20e5 | 18300 | inactive |
| CG43999 | SID104194397 | 2.42e5 | 2.48e5 | 2.84e5 | 2.32e5 | 21400 | inactive |
| Ir7d | SID104197802 | 29990 | 36030 | 49855 | 41670 | 2770 | inactive |
| Trxr2 | SID104191692 | 1.49e5 | 1.26e5 | 1.20e5 | 1.22e5 | 12795 | inactive |
| OtopLa | SID104197579 | 2.20e5 | 1.27e5 | 2.50e5 | 2.74e5 | 12410 | inactive |
| OtopLa | SID104197925 | 1.76e5 | 1.96e5 | 4.20e5 | 3.71e5 | 12070 | inactive |
| CG13154 | SID104186071 | 1.02e5 | 1.03e5 | 1.45e5 | 1.19e5 | 10120 | inactive |
| tant | SID104191193 | 1.67e5 | 2.02e5 | 2.47e5 | 1.95e5 | 5068 | inactive |
| baz | SID104200101 | 84885 | 1.04e5 | 68155 | 51080 | 10850 | inactive |
| Rpn12R | SID104189634 | 2.13e5 | 2.00e5 | 3.99e5 | 3.46e5 | 10938 | inactive |
| CG15571 | SID104197851 | 1.34e5 | 1.37e5 | 2.89e5 | 2.31e5 | 10785 | inactive |
| Jon25Biii | SID104182907 | 82070 | 56885 | 80995 | 83605 | 5325 | inactive |
| CG8042 | SID104189468 | 1.10e5 | 1.23e5 | 77925 | 37495 | 9845 | inactive |
| CG31883 | SID104182353 | 2.43e5 | 2.51e5 | 1.62e5 | 2.03e5 | 20325 | inactive |
| SuUR | SID104191084 | 1.55e5 | 1.21e5 | 1.59e5 | 1.77e5 | 6332 | inactive |
| in | SID104191680 | 1.51e5 | 81990 | 1.06e5 | 1.10e5 | 7005 | inactive |
| CG6836 | SID104190514 | 1.14e5 | 1.18e5 | 85520 | 93580 | 8038 | inactive |
| Mal-A5 | SID104187024 | 1.77e5 | 1.52e5 | 1.54e5 | 1.67e5 | 18250 | inactive |
| RpL31 | SID104186508 | 54330 | 71495 | 88380 | 74040 | 3870 | inactive |
| CG14342 | SID104180164 | 1.26e5 | 1.18e5 | 90075 | 54080 | 9095 | inactive |
| nerfin-2 | SID104194339 | 1.13e5 | 1.04e5 | 1.16e5 | 82410 | 6080 | inactive |
| CG33282 | SID104180214 | 1.70e5 | 1.45e5 | 1.75e5 | 1.56e5 | 9570 | inactive |
| Pdcd4 | SID104199152 | 79710 | 1.04e5 | 97385 | 1.14e5 | 15330 | inactive |
| frm | SID104189545 | 1.57e5 | 1.79e5 | 1.07e5 | 79190 | 13540 | inactive |
| Gfrl | SID104194989 | 1.63e5 | 1.73e5 | 1.78e5 | 2.17e5 | 13880 | inactive |
| Gfrl | SID104194991 | 1.87e5 | 1.45e5 | 2.00e5 | 2.16e5 | 10790 | inactive |
| Gfrl | SID104195357 | 1.83e5 | 1.94e5 | 2.18e5 | 2.36e5 | 15192 | inactive |
| Gfrl | SID104195511 | 1.77e5 | 1.38e5 | 2.56e5 | 2.22e5 | 11475 | inactive |
| Adat1 | SID104183271 | 1.36e5 | 1.68e5 | 1.69e5 | 1.66e5 | 13040 | inactive |
| CG7296 | SID104182834 | 79235 | 76360 | 93525 | 78385 | 7278 | inactive |
| Hen1 | SID104185931 | 1.25e5 | 1.10e5 | 1.08e5 | 1.00e5 | 8675 | inactive |
| Hen1 | SID104185932 | 1.09e5 | 1.19e5 | 1.27e5 | 1.47e5 | 8740 | inactive |
| eIF2A | SID104191617 | 1.17e5 | 1.17e5 | 67215 | 71135 | 8335 | inactive |
| Poc1 | SID104189505 | 1.58e5 | 1.49e5 | 1.32e5 | 86000 | 13475 | inactive |
| CG5888 | SID104181721 | 1.71e5 | 1.78e5 | 1.79e5 | 1.74e5 | 15245 | inactive |
| CG32022 | SID104189470 | 3.51e5 | 2.95e5 | 3.46e5 | 3.53e5 | 12385 | inactive |
| EcR | SID104184698 | 1.33e5 | 1.18e5 | 1.33e5 | 1.24e5 | 10215 | inactive |
| EcR | SID104184702 | 1.98e5 | 2.51e5 | 1.70e5 | 2.12e5 | 15400 | inactive |
| NdufA3 | SID104198223 | 72690 | 66165 | 1.06e5 | 93975 | 5785 | inactive |
| CG2100 | SID104192095 | 1.22e5 | 1.40e5 | 94775 | 82925 | 9975 | inactive |
| Diap2 | SID104187236 | 1.08e5 | 1.32e5 | 2.10e5 | 1.75e5 | 9650 | inactive |
| zfh2 | SID104196970 | 1.29e5 | 1.46e5 | 2.58e5 | 2.19e5 | 12055 | inactive |
| CG10433 | SID104183860 | 1.95e5 | 1.83e5 | 1.77e5 | 1.89e5 | 14950 | inactive |
| promL | SID104188525 | 1.24e5 | 1.14e5 | 1.02e5 | 50540 | 13570 | inactive |
| QC | SID104189528 | 1.09e5 | 72840 | 73760 | 21805 | 9930 | inactive |
| Cyp6a20 | SID104187172 | 1.56e5 | 1.58e5 | 1.70e5 | 1.71e5 | 11270 | inactive |
| CG6959 | SID104195943 | 54735 | 67655 | 71025 | 39090 | 4345 | inactive |
| cta | SID104183561 | 2.11e5 | 2.21e5 | 1.82e5 | 1.93e5 | 13620 | inactive |
| Tpr2 | SID104183253 | 2.26e5 | 2.00e5 | 2.55e5 | 2.39e5 | 19300 | inactive |
| PolZ1 | SID104186592 | 2.23e5 | 1.49e5 | 1.49e5 | 1.36e5 | 15315 | inactive |
| CG31437 | SID104193503 | 1.69e5 | 1.81e5 | 1.68e5 | 1.71e5 | 15780 | inactive |
| fd102C | SID104196995 | 1.07e5 | 1.12e5 | 1.90e5 | 1.94e5 | 8835 | inactive |
| Nprl2 | SID104199945 | 78355 | 88255 | 72565 | 36785 | 8255 | inactive |
| whd | SID104187143 | 1.50e5 | 1.61e5 | 1.56e5 | 1.38e5 | 13720 | inactive |
| CG7329 | SID104182838 | 1.48e5 | 1.71e5 | 71520 | 1.18e5 | 21895 | inactive |
| Tre1 | SID104198518 | 1.22e5 | 1.16e5 | 2.27e5 | 1.88e5 | 9775 | inactive |
| Nepl15 | SID104195422 | 26115 | 30390 | 32825 | 35485 | 2575 | inactive |
| Unr | SID104190553 | 61195 | 47740 | 38595 | 10365 | 3690 | inactive |
| CG2712 | SID104198381 | 2.01e5 | 1.87e5 | 2.22e5 | 2.15e5 | 12090 | inactive |

4 entries from above, sorted by “uninduced reporter light, run 1, well a”, highest first:
| target | PubChem SID | induced reporter light, run 1, well a | induced reporter light, run 1, well b | control promoter light, run 1, well a | control promoter light, run 1, well b | uninduced reporter light, run 1, well a | Outcome |
| --- | --- | --- | --- | --- | --- | --- | --- |
| Tpr2 | SID104183253 | 2.26e5 | 2.00e5 | 2.55e5 | 2.39e5 | 19300 | inactive |
| PolZ1 | SID104186592 | 2.23e5 | 1.49e5 | 1.49e5 | 1.36e5 | 15315 | inactive |
| cta | SID104183561 | 2.11e5 | 2.21e5 | 1.82e5 | 1.93e5 | 13620 | inactive |
| CG6959 | SID104195943 | 54735 | 67655 | 71025 | 39090 | 4345 | inactive |
